# No constants are given. Whether binding was seen depends on the method and setting. In cells and extracts the contact can be indirect. Here binding means that the protein was enriched with, or labelled near, the bait; the list need not be complete. Tags and fused reporters may be left off the sequences shown.
# T1: FLAG-M1-MANF (UniProt Q9CXI5)
# T1 sequence: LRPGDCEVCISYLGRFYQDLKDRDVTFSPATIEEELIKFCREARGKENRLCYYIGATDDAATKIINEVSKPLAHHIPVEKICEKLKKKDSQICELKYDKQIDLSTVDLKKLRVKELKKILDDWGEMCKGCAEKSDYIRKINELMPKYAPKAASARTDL
# Biological target: T1, FLAG-M1-MANF
# Test: affinity purification with mass spectrometry; in vivo cross-linking with 1 mM DSP, lysis in TBS/Ca2+ buffer, ANTI-FLAG-M1 agarose IP of FLAG-M1-MANF from CHO-K1 S21 MANF-/- cells; Coomassie bands excised and analysed by mass spectrometry
binder,measurement,value
"Grp170 (endogenous, CHO-K1 S21 cells) (protein, UniProt Q60432 33-999) LAVMSVDLGSESMKVAIVKPGVPMEIVLNKESRRKTPVTVTLKENERFLGDSAAGMAIKNPKATLRYFQHLLGKQADNPHVALYRDRFPEHELNIDPQRQTVRFQISPQLQFSPEEVLGMVLNYSRSLAEDFAEQPIKDAVITVPAFFNQAERRAVLQAARMAGLKVLQLINDNTATALSYGVFRRKDINSTAQNVMFYDMGSGTTVCTIVTYQTVKTKEAGMQPQLQIRGVGFDRTLGGLEMELRLREHLAKLFNEQRRGQKAKDVRENPRAMAKLLREANRLKTVLSANADHMAQIEGLMDDVDFKAKVTRVESEELCADLFERVPGPVQQALQSAEMSLDEIEQVILVGGATRVPKVQEVLLKAVGKEELGKNINADEAAAMGAVYQAAALSKAFKVKPFVVRDAVIYPILVEFTREVEEEPGVRSLKHNKRVLFSRMGPYPQGKVITFNRYSHDFNFHINYGDLGFLGPEDLRVFGSQNLTTVKLKGVGESLKKYPDYESKGIKAHFNLDESGVLSLDRVESVFETLVEDSPEEESTLTKLGNTISSLFGGGTSSDAKENGTDAVQEEEESPTEGSKDEPGEQGDLKEETEAPVEDTSQPPPPEPKGDAAPEGEKPDEKESGGKSEAQKPEEKGQSGPEGVPPAPEEEKKQKPARKQKMVEEIGVELAVLDLPDLPEDELARSVKKLEDLTLRDLEKQEREKAANSLEAFIFETQDKLYQPEYQEVSTEEQREEISGKLSATSTWLEDEGFGATTVMLKEKLAELKKLCQGLFFRVEERRKWPERLSALDNLLNHSSIFLKGARLIPEMDQIFTEVEMTTLEKVINDTWAWKNATLAEQAKLPATEKPVLLSKDIEAKMMALDREVQYLLNKAKFTKPRPRPKDKNGTRTEPPLNATAGDQEEKVIPPAGQPEEAKPILEPDKEETTTEPTDSEPLELGGPGAESEPKEQTAGQKRSSKNDEL",binding,binds

# From paper PMC6358605
